Reference: PubChem BioAssay AID1259307 (Sanger Institute, 2017)

- Aim: 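siRNA kinome screen seeking kinases whose loss harms SW620 cells alone or with drugs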 (primary screen)
- System: SW620 colorectal cancer cells
- Reagent: siRNA pool against human genes
- Challenge: anchor drugs BYL719 at 1 µM, cetuximab at 5 µg/ml or trametinib at 10 nM, each beside a DMSO vehicle arm
- Measurement: 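Cell viability in each well relative to non-targeting controls, averaged over replicates and turned into a robust z-score; synergy with BYL719 (1 µM), cetuximab (5 µg/ml), trametinib (10 nM) versus DMSO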
- Reading the numbers: viability robust z-score, no drug and viability vs control, no drug: higher = more viable cells
- Rule for the call: 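a knock-down counts as lethal alone if its drug-free robust viability z-score is lower than -3, regardless of synergy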
- Meaning of the calls: active = essential (lethal alone); inactive = no change alone
The deposit covers 794 reagents; shown is an unselected part. 15 of all reagents (1.9%) count as active. 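Calls reflect lethality without any drug; synergy scores did not enter the calls.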 A number with no mark means an inactive call. No viability above 1 is reported: the scale is capped. Not all columns of the deposit are shown. Not given: the amount of reagent, the time to read-out.

The first 2 entries, ahead of the listing:
HASPIN (histone H3 associated protein kinase) → viability robust z-score, no drug: -0.234; viability vs control, no drug: 0.91
DTYMK (deoxythymidylate kinase) → viability robust z-score, no drug: 0.222; viability vs control, no drug: 0.953

Results, from the first entry:
HASPIN (histone H3 associated protein kinase) → viability robust z-score, no drug: -0.234; viability vs control, no drug: 0.91
DTYMK (deoxythymidylate kinase) → viability robust z-score, no drug: 0.222; viability vs control, no drug: 0.953
DCLK1 (doublecortin like kinase 1) → viability robust z-score, no drug: 0.736; viability vs control, no drug: 1
STK31 (serine/threonine kinase 31) → viability robust z-score, no drug: 0.736; viability vs control, no drug: 1
BMPR1A (bone morphogenetic protein receptor type 1A) → viability robust z-score, no drug: -0.181; viability vs control, no drug: 0.915
PRKY (protein kinase Y-linked (pseudogene)) → viability robust z-score, no drug: -0.475; viability vs control, no drug: 0.888
GUK1 (guanylate kinase 1) → viability robust z-score, no drug: -0.423; viability vs control, no drug: 0.893
BUB1 (BUB1 mitotic checkpoint serine/threonine kinase) → viability robust z-score, no drug: 0.736; viability vs control, no drug: 1
MYLK2 (myosin light chain kinase 2) → viability robust z-score, no drug: -0.484; viability vs control, no drug: 0.887
NTRK3 (neurotrophic receptor tyrosine kinase 3) → viability robust z-score, no drug: 0.736; viability vs control, no drug: 1
IRAK1 (interleukin 1 receptor associated kinase 1) → viability robust z-score, no drug: -0.754; viability vs control, no drug: 0.862
GUCY2F (guanylate cyclase 2F, retinal) → viability robust z-score, no drug: 0.736; viability vs control, no drug: 1
RYK (receptor like tyrosine kinase) → viability robust z-score, no drug: 0.0298; viability vs control, no drug: 0.935
NUAK1 (NUAK family kinase 1) → viability robust z-score, no drug: 0.736; viability vs control, no drug: 1
EPHB4 (EPH receptor B4) → viability robust z-score, no drug: -0.108; viability vs control, no drug: 0.922
MAP2K5 (mitogen-activated protein kinase kinase 5) → viability robust z-score, no drug: 0.736; viability vs control, no drug: 1
CKS2 (CDC28 protein kinase regulatory subunit 2) → viability robust z-score, no drug: 0.0624; viability vs control, no drug: 0.938
PIM3 (Pim-3 proto-oncogene, serine/threonine kinase) → viability robust z-score, no drug: 0.677; viability vs control, no drug: 0.995
AKT3 (AKT serine/threonine kinase 3) → viability robust z-score, no drug: 0.736; viability vs control, no drug: 1
NEK8 (NIMA related kinase 8) → viability robust z-score, no drug: -0.975; viability vs control, no drug: 0.842
PRKAR2B → viability robust z-score, no drug: 0.373; viability vs control, no drug: 0.966
MAP3K10 (mitogen-activated protein kinase kinase kinase 10) → viability robust z-score, no drug: 0.736; viability vs control, no drug: 1
IRAK3 (interleukin 1 receptor associated kinase 3) → viability robust z-score, no drug: -0.505; viability vs control, no drug: 0.886
JAK1 (Janus kinase 1) → viability robust z-score, no drug: 0.736; viability vs control, no drug: 1
ANKK1 (ankyrin repeat and kinase domain containing 1) → viability robust z-score, no drug: 0.736; viability vs control, no drug: 1
MYLK4 (myosin light chain kinase family member 4) → viability robust z-score, no drug: -0.235; viability vs control, no drug: 0.91
SCYL1 (SCY1 like pseudokinase 1) → viability robust z-score, no drug: -0.581; viability vs control, no drug: 0.878
AURKC (aurora kinase C) → viability robust z-score, no drug: -1.76; viability vs control, no drug: 0.769
